What all share (assay): log2 fold change, soluble protein after heating vs DMSO (PISA); higher = thermal stabilisation; K562 lysate, 10 uM; active = over 0.2 and 3.5 SD of the protein, either way, in both replicates (recomputed)
Compound in test [1]: CN1CC[C@H](c2c(O)cc(O)c3c(=O)cc(-c4ccccc4Cl)oc23)[C@H](O)C1 [alvocidib]
The procedure, abridged: (§1)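 Thermal stability, expressed as log-two fold change relative to solvent controls, is given from duplicates. Crude K562 extract in PBS pH 7.4 with 1 mM MgCl2, at 1 mg/mL protein, was treated with 10 μM compound for 30 min and heated in aliquots for 3 min across 48°C-58°C. After pooling, adjustment to 0.5% NP-40 at 4°C and centrifugation at 21,000xg for 90 min, supernatant protein was measured by TMTpro 16plex LC-MS/MS with channel sums equalised.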

Sequences of proteins named here, by UniProt entry; tags and fusion partners are left off. A change or cut given only in a name is not applied to a line headed by its entry.
UniProt Q9BYG5: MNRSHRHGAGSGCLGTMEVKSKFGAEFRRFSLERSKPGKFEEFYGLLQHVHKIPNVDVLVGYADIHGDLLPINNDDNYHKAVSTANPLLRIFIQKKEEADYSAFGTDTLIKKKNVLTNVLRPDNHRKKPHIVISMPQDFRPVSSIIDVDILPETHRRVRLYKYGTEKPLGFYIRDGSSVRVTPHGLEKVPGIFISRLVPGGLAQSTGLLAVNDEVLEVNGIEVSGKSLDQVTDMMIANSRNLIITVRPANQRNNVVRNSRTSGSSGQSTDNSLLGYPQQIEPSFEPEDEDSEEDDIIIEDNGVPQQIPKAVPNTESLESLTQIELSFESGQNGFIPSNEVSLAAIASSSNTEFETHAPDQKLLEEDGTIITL
UniProt Q9BXS6: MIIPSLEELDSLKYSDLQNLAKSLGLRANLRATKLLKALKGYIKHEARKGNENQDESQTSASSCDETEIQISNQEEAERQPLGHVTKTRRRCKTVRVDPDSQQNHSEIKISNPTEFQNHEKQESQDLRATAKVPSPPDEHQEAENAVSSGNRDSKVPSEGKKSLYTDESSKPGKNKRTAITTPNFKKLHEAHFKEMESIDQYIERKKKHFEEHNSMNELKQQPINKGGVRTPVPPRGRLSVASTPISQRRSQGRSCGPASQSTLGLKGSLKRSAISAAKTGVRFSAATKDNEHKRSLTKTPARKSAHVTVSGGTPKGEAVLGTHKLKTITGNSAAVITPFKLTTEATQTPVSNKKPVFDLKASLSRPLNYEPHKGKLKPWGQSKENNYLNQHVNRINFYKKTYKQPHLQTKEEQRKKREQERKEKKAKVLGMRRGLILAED
UniProt Q9H1P3, whole entry, looked up: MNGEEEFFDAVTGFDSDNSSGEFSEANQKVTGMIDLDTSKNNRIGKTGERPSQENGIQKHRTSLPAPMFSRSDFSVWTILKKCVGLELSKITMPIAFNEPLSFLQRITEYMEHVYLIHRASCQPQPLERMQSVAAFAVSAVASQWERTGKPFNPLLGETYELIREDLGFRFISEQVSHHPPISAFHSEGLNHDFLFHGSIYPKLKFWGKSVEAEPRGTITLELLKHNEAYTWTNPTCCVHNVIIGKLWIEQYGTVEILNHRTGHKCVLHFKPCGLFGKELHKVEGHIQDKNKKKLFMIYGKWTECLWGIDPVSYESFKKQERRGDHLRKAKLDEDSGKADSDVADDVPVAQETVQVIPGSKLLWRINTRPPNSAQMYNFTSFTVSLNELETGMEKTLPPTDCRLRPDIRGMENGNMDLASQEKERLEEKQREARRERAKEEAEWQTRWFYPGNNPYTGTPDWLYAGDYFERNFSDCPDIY
UniProt Q9UKX7: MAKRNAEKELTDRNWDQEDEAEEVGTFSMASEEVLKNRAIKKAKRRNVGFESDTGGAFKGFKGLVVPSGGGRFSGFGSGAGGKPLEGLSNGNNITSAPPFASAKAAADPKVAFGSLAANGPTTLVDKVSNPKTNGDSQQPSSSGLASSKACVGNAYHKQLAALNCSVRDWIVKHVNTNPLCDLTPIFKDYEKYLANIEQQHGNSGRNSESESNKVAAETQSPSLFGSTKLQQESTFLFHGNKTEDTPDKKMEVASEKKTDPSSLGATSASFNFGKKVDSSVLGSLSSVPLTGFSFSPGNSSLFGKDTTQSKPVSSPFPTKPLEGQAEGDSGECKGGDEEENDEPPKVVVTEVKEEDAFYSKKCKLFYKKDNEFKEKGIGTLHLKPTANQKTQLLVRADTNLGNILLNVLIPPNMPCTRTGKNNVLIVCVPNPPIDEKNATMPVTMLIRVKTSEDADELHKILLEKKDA
UniProt Q96GU1: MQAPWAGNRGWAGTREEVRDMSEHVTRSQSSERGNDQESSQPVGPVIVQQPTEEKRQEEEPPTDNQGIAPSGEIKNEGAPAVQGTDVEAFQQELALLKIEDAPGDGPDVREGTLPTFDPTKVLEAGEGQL
UniProt Q8TEM1: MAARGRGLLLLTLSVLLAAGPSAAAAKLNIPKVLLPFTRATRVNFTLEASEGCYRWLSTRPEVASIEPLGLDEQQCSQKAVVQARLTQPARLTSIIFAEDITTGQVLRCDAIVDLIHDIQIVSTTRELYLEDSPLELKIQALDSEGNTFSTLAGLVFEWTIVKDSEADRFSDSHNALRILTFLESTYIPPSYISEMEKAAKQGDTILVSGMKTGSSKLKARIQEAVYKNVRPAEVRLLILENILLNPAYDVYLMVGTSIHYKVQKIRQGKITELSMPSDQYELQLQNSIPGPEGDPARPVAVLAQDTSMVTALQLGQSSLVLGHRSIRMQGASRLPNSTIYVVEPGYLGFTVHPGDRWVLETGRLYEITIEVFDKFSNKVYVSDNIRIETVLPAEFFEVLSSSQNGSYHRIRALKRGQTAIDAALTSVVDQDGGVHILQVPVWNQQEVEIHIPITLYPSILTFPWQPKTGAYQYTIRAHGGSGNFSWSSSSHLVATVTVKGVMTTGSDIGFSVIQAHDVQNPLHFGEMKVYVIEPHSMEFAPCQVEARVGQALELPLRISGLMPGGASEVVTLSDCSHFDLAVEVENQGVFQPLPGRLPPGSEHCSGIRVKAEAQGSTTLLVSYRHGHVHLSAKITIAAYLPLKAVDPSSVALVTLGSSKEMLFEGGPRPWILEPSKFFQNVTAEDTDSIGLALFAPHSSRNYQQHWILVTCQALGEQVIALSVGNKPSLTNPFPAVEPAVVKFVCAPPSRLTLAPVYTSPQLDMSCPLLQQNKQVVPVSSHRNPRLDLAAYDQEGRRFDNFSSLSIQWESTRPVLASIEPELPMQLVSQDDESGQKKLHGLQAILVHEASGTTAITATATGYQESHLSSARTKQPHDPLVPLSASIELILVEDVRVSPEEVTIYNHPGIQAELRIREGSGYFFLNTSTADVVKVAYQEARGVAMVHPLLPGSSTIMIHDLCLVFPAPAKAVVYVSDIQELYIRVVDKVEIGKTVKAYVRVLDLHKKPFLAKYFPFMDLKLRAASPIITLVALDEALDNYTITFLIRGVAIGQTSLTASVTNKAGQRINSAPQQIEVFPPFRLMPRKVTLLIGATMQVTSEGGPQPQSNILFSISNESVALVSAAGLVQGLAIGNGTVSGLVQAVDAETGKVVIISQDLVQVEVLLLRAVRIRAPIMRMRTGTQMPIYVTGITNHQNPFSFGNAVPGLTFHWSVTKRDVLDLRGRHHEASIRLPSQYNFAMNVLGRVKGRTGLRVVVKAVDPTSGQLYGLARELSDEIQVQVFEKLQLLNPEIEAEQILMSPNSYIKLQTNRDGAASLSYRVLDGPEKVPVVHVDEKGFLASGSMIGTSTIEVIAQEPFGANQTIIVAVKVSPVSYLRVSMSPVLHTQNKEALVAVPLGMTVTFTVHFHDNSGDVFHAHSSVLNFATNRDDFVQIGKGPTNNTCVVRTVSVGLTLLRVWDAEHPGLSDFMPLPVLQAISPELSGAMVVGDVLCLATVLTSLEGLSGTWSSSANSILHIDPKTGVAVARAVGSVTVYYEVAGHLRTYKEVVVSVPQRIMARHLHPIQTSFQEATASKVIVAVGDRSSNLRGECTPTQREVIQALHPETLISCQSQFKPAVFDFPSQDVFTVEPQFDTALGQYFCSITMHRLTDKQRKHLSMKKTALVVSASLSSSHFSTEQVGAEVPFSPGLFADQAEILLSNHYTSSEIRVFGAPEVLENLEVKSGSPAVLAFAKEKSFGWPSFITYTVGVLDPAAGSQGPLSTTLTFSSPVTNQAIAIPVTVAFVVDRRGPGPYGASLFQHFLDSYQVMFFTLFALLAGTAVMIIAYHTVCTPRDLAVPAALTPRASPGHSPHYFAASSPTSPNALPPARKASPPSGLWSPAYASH
UniProt Q6VY07, whole entry, looked up: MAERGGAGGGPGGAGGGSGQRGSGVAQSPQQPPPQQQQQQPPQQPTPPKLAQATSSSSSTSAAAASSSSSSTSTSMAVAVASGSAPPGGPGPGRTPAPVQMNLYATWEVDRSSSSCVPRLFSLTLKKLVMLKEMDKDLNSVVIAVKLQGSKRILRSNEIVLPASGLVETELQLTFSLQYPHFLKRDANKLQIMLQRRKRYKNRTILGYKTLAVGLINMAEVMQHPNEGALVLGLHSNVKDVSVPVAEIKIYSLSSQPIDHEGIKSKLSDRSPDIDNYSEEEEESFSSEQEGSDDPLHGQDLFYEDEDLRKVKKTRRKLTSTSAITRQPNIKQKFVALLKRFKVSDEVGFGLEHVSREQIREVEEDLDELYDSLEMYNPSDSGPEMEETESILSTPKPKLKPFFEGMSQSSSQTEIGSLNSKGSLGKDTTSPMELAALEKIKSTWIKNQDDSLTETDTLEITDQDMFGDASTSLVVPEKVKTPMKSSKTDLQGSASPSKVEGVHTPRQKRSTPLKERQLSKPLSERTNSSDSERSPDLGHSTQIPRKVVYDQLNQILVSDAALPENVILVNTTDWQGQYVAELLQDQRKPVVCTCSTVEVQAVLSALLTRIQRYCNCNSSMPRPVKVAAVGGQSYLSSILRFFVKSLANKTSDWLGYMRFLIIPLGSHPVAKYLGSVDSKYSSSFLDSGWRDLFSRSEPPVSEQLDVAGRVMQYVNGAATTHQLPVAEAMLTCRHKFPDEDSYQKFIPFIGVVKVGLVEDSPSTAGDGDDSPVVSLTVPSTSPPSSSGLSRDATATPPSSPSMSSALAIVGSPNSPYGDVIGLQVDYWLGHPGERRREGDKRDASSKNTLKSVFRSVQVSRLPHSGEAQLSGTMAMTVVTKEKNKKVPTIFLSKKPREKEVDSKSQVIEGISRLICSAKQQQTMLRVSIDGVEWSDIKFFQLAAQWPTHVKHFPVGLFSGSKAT
UniProt Q9NX40: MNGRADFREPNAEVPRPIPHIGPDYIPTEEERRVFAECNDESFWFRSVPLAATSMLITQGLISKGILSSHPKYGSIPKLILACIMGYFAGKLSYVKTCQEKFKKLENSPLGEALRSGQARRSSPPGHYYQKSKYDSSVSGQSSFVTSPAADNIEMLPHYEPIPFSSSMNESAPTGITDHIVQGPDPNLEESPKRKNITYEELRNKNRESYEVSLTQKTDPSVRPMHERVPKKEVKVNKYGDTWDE
UniProt Q9NVE7: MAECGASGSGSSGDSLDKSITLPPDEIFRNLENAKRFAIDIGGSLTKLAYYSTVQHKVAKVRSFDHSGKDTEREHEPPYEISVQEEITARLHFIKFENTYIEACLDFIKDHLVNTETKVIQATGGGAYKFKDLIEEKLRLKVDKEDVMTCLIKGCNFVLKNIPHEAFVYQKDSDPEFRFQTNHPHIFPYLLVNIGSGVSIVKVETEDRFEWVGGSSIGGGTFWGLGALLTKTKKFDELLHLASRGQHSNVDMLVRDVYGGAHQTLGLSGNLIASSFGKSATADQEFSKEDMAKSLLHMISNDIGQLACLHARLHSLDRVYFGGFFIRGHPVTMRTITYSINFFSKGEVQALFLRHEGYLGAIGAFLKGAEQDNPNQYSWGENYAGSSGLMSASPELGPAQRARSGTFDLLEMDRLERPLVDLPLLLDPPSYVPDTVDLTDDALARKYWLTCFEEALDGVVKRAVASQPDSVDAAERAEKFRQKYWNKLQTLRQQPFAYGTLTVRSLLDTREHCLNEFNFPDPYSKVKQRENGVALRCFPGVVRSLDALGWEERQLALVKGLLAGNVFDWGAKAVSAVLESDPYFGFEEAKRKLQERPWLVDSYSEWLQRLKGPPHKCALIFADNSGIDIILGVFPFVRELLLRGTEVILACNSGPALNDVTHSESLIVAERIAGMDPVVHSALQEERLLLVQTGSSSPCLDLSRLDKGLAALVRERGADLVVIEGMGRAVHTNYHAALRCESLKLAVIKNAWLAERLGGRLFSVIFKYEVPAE
UniProt O43252: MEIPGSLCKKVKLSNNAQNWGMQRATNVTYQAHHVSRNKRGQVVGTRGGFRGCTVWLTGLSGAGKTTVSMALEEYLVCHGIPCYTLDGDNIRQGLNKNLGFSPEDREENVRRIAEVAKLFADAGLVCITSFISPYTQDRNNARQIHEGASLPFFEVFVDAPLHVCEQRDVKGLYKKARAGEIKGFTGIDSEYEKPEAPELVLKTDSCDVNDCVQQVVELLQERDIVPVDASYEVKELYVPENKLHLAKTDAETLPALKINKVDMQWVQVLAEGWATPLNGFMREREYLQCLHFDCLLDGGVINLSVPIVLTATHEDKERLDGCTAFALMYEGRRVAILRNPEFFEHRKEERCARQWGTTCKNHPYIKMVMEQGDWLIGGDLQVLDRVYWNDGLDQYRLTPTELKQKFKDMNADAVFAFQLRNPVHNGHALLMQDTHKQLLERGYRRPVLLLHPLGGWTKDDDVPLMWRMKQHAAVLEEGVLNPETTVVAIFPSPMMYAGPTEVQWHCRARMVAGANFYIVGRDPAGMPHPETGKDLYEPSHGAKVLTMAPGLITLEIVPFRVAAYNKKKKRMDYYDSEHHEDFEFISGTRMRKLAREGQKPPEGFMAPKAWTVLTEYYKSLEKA

Compound in test [2]: CN1CCc2c(c3ccccc3n2Cc2ccc(C(=O)NO)cc2)C1 [Tubastatin A]
An outline of the steps: as §1

Compound in test [3]: CNC(=O)C1=CC=CC=C1NC2=NC(=NC=C2Cl)NC3=C(C=C(C=C3)N4CCOCC4)OC
The procedure, abridged: as §1

Compound in test [4]: CNC(=O)c1ccc(Nc2ncc(C(F)(F)F)c(NCc3nccnc3N(C)S(C)(=O)=O)n2)cc1 [defactinib]
The procedure, abridged: as §1

Compound in test [5]: CNc1nc(-c2ccc3c(N)n[nH]c3c2)cc(N2C[C@@H](C(=O)NC3CCCCC3)CC[C@H]2C)n1
An outline of the steps: as §1

Compound in test [6]: COC(=O)N[C@@H](C)CNc1nccc(-c2cn(C(C)C)nc2-c2cc(Cl)cc(NS(C)(=O)=O)c2F)n1 [encorafenib]
An outline of the steps: as §1

Compound in test [7]: COC(=O)[C@H](CCSC)NC(=O)C1=C(C=C(C=C1)NC[C@H](CS)N)C2=CC=CC=C2
An outline of the steps: as §1

Compound in test [8]: COc1cc(Nc2ncc3c(n2)-c2ccc(Cl)cc2C(c2c(F)cccc2OC)=NC3)ccc1C(=O)O [alisertib]
An outline of the steps: as §1

Compound in test [9]: COc1cc2nc(-c3cc(F)ccc3O)nc(N[C@@H]3CNC[C@H]3C(C)(C)O)c2cc1OC
An outline of the steps:
as §1

Compound in test [10]: COc1cc2ncnc(Nc3ccc(F)c(Cl)c3)c2cc1OCCCN1CCOCC1 [gefitinib]
An outline of the steps: as §1

These results are taken from the supplement of paper PMC10849652.

The list shows a part of the results.

For the target PARD6B (UniProt Q9BYG5), the log2 fold change was inactive: 0.001 in test [1]; inactive: -0.066 in test [2]; inactive: 0.025 in test [3]; inactive: -0.018 in test [4]; inactive: -0.067 in test [5]; inactive: 0.009 in test [6]. Moreover, the log2 fold change was inactive: 0.019 in test [7], inactive: -0.032 in test [8], inactive: -0.023 in [9] and inactive: 0.037 in test [10].
In the case of NUSAP1 (UniProt Q9BXS6), the log2 fold change in test [1] is inactive: -0.17; in test [2], inactive: 0.029; in [3], inactive: -0.02; in test [4], inactive: 0.027; in [5], inactive: 0.07; in test [6], inactive: 0.012. Further, the log2 fold change is inactive: -0.028 in test [7], inactive: 0.01 in test [8], inactive: -0.002 in test [9] and inactive: -0.012 in test [10].
For the target OSBPL2 (UniProt Q9H1P3), the log2 fold change is inactive: 0.01 in [1]; inactive: -0.099 in [2]; inactive: -0.009 in [3]; inactive: 0.023 in test [4]; inactive: -0.089 in [5]; inactive: 0 in test [6]. The log2 fold change is inactive: 0.073 in test [7], inactive: -0.146 in [8], inactive: 0.047 in test [9] and inactive: 0 in test [10].
Take NUP50 (UniProt Q9UKX7): the log2 fold change was inactive: -0.043 in test [1]; inactive: 0.03 in test [2]; inactive: 0.007 in test [3]; inactive: 0.003 in [4]; inactive: 0.045 in test [5]; inactive: 0.023 in test [6]. Besides, the log2 fold change is inactive: -0.049 in test [7], inactive: -0.017 in [8], inactive: 0.015 in [9] and inactive: -0.019 in [10].
On to PAGE5 (UniProt Q96GU1), for which the log2 fold change was inactive: 0.26 in [1]; inactive: 0.143 in test [2]; inactive: 0.069 in [3]; inactive: 0.238 in test [4]; inactive: -0.044 in [5]; inactive: 0.036 in test [6]. Also, the log2 fold change in test [7] is inactive: 0.011; in test [8], inactive: -0.043; in test [9], inactive: -0.165; in test [10] it was inactive: -0.211.
As to NUP210 (UniProt Q8TEM1), the log2 fold change is inactive: 0.014 in test [1]; inactive: 0.107 in [2]; inactive: -0.061 in test [3]; inactive: 0.035 in test [4]; inactive: -0.011 in test [5]; inactive: 0.086 in [6]. The log2 fold change was inactive: 0.145 in [7], inactive: 0.009 in test [8], inactive: 0.002 in test [9] and inactive: 0.003 in test [10].
Regarding OXSR1 (UniProt O95747), the log2 fold change is inactive: 0.013 in test [1]; inactive: -0.106 in [2]; inactive: 0.016 in test [3]; inactive: 0.025 in test [4]; inactive: -0.049 in test [5]; inactive: 0.032 in test [6]. The log2 fold change in test [7] was inactive: 0.205; in test [8], inactive: 0.021; in [9], inactive: 0.003; in test [10], inactive: -0.021.
Regarding PACS1 (UniProt Q6VY07), the log2 fold change in test [1] is inactive: 0.015; in test [2], inactive: 0.001; in [3], inactive: 0.057; in [4], inactive: 0.002; in test [5], inactive: -0.011; in test [6], inactive: -0.014. The log2 fold change in [7] is inactive: -0.012; in test [8] it was inactive: 0.067; in [9], inactive: -0.017; in test [10] it was inactive: 0.061.
As for OSBPL6 isoform 5 (UniProt Q9BZF3), the log2 fold change in test [1] was inactive: -0.056; in test [2], inactive: -0.05; in [3], inactive: -0.043; in test [4], inactive: -0.063; in [5], inactive: -0.047; in test [6], inactive: -0.005. Also, the log2 fold change in test [7] was inactive: 0.015; in test [8] it was inactive: -0.068; in [9], inactive: -0.004; in test [10], inactive: 0.164.
On to PACC1 (UniProt Q9H813), for which the log2 fold change in test [1] was inactive: 0.003; in test [2] it was inactive: -0.003; in test [3], inactive: -0.1; in test [4] it was inactive: -0.04; in [5] it was inactive: -0.385; in [6], inactive: -0.059. The log2 fold change in test [7] is inactive: 0.021; in test [8], inactive: -0.042; in test [9], inactive: -0.138; in test [10], inactive: -0.085.
Regarding PAF1 (UniProt Q8N7H5), the log2 fold change was inactive: 0.006 in [1]; inactive: -0.034 in test [2]; inactive: 0.021 in test [3]; inactive: 0.003 in test [4]; inactive: -0.011 in test [5]; inactive: -0.005 in test [6]. Moreover, the log2 fold change in [7] was inactive: 0.033; in test [8], inactive: -0.02; in [9], inactive: 0.019; in [10], inactive: 0.007.
As for OCIAD1 (UniProt Q9NX40), the log2 fold change was inactive: 0.039 in test [1]; inactive: 0.054 in [2]; inactive: 0.004 in test [3]; inactive: -0.012 in [4]; inactive: 0.079 in [5]; inactive: 0.002 in [6]. Further, the log2 fold change in test [7] was inactive: 0.036; in test [8], inactive: -0.004; in [9] it was inactive: 0.005; in [10], inactive: 0.018.
Consider PAPOLA (UniProt P51003), for which the log2 fold change in test [1] is inactive: -0.004; in test [2], inactive: 0.085; in test [3] it was inactive: 0.021; in [4], inactive: -0.013; in test [5], inactive: -0.012; in test [6], inactive: -0.009. Also, the log2 fold change in test [7] is inactive: 0.025; in [8], inactive: 0.01; in [9], inactive: 0.017; in test [10], inactive: 0.018.
Turning to PANK4 (UniProt Q9NVE7), the log2 fold change was inactive: -0.009 in [1]; inactive: -0.117 in test [2]; inactive: 0.018 in [3]; inactive: 0.01 in [4]; inactive: 0.019 in [5]; inactive: -0.011 in test [6]. Moreover, the log2 fold change in test [7] is active: 0.498; in test [8], inactive: -0.028; in [9] it was inactive: 0.013; in test [10], inactive: -0.017.
PAPSS1 (UniProt O43252): the log2 fold change was inactive: -0.034 in test [1]; inactive: -0.015 in test [2]; inactive: 0.009 in test [3]; inactive: -0.005 in test [4]; inactive: -0.011 in test [5]; inactive: 0.01 in test [6]. Also, the log2 fold change was inactive: 0.017 in [7], inactive: -0.014 in test [8], inactive: -0.008 in test [9] and inactive: 0.011 in [10].
